Assay results reported in the supplement of paper PMC10849652.
This is one part of the list.

By UniProt entry, the sequences of proteins in these tests, tags left out. Where a name states a change or a piece, a line headed by the entry shows the natural chain unless it says otherwise.
UniProt Q8IW41: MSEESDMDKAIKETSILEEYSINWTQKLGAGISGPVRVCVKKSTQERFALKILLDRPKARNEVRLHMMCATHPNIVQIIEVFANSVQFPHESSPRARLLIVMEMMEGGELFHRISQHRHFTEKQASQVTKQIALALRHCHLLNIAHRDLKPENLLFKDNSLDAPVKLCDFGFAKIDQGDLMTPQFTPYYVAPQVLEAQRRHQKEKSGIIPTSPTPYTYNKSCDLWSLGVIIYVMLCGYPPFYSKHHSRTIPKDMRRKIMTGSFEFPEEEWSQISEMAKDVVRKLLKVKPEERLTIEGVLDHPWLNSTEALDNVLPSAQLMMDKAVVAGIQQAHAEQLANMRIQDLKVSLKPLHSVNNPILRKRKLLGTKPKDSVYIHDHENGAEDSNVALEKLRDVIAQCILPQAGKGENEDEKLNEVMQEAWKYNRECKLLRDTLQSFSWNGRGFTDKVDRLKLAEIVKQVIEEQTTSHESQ
UniProt Q15691: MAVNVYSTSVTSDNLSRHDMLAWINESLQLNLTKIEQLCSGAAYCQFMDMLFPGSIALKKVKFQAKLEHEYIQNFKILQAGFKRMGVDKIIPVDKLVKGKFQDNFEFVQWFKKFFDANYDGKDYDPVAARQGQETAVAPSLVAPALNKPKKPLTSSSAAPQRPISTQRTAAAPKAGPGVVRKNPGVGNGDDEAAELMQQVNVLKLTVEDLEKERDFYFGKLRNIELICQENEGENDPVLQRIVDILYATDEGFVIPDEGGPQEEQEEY
UniProt O15479: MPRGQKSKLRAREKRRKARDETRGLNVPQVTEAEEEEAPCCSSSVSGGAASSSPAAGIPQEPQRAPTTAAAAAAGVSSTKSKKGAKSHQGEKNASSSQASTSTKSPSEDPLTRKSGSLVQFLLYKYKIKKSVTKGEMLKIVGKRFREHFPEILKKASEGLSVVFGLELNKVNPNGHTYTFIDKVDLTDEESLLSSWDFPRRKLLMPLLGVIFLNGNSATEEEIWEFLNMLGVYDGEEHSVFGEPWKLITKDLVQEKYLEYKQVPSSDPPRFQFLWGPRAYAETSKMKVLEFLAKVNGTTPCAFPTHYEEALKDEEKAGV
UniProt Q7Z3D4: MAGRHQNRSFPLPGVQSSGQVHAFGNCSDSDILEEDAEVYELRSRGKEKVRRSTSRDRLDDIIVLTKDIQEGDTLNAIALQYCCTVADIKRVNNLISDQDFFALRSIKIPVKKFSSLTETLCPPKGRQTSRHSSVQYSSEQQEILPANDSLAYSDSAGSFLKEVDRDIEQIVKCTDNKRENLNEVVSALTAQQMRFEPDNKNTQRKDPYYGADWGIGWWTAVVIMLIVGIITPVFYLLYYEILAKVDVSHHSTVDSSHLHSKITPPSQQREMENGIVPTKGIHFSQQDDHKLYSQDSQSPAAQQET
UniProt Q8WWC4: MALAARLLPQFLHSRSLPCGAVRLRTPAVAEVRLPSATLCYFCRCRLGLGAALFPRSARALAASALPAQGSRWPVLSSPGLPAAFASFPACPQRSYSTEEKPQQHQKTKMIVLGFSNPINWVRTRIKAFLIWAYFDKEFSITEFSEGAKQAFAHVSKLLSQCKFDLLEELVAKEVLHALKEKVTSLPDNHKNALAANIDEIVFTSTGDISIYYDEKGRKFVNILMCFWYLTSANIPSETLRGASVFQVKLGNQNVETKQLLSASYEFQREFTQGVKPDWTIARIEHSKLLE
UniProt Q9NZL9, whole entry, looked up: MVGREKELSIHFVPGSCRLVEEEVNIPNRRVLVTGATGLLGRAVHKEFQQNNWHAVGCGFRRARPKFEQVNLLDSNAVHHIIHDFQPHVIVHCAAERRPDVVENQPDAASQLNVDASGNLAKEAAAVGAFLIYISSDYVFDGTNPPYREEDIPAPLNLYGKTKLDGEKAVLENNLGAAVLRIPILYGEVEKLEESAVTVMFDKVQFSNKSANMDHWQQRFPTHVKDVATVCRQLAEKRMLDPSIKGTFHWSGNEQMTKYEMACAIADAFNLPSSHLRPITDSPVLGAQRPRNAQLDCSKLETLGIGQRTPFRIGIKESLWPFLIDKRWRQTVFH
UniProt Q16706: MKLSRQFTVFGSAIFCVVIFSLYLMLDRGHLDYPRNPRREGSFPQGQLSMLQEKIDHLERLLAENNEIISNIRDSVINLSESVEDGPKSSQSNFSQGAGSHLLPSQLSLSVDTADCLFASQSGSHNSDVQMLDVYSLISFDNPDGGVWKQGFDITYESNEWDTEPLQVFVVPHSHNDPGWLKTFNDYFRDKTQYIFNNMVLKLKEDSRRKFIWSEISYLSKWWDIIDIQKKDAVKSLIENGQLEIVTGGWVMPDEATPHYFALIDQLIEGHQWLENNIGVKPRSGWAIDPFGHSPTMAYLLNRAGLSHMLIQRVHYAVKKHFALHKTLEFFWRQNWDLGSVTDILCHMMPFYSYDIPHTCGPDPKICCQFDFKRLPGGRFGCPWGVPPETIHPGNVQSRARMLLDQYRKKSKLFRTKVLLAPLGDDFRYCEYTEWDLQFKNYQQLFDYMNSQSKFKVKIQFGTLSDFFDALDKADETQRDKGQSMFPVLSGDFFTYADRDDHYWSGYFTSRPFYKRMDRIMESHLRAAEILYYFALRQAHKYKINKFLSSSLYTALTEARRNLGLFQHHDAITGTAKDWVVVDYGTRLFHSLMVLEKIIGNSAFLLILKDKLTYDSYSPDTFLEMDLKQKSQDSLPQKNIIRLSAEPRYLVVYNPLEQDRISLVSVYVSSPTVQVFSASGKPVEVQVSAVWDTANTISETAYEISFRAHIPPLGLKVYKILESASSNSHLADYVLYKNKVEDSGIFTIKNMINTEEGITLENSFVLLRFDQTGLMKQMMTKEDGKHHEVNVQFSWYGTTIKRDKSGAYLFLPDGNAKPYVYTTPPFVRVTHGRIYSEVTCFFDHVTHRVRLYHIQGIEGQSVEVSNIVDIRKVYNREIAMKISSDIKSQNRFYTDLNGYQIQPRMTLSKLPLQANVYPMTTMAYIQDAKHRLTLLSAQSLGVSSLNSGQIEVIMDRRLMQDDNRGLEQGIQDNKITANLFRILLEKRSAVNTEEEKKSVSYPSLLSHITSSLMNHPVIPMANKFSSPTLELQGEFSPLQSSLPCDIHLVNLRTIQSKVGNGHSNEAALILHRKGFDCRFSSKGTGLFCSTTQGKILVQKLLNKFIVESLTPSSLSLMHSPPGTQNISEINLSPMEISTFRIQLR
UniProt Q8WV07: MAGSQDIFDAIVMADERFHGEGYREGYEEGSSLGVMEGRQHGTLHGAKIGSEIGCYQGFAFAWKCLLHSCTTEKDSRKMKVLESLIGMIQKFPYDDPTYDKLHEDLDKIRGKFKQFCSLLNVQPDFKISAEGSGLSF
UniProt Q9NQG1: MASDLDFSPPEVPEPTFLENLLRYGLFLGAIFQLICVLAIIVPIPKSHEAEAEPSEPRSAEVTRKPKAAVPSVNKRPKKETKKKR
UniProt P07948: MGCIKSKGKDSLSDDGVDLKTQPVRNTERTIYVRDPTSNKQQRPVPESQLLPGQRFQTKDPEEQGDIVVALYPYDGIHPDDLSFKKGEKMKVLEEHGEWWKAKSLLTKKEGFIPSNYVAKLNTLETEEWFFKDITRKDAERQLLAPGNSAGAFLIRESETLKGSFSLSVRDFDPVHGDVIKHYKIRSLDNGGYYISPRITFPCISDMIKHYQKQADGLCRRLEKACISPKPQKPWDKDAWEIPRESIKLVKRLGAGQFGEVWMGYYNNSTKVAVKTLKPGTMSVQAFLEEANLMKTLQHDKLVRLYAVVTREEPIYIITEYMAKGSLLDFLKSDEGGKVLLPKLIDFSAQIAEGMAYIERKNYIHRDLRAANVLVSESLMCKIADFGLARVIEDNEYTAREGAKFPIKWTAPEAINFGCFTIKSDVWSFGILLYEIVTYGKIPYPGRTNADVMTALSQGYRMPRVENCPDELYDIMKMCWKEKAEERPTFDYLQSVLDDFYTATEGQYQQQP
UniProt O75608: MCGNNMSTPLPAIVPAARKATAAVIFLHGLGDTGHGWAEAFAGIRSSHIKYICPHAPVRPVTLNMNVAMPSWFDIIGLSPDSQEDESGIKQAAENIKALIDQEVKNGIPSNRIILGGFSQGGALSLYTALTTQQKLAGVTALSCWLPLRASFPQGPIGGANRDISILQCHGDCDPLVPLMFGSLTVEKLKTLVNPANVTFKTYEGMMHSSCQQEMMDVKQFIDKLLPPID
UniProt Q9UPY8, whole entry, looked up: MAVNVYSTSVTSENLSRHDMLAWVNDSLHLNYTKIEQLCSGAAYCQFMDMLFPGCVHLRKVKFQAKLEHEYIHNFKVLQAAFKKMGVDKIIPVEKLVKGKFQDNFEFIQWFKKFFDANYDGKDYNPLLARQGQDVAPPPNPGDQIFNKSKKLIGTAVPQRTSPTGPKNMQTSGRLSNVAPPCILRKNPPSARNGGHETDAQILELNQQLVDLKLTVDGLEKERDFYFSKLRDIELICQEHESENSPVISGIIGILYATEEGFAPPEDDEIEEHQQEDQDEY
UniProt Q9UNF1: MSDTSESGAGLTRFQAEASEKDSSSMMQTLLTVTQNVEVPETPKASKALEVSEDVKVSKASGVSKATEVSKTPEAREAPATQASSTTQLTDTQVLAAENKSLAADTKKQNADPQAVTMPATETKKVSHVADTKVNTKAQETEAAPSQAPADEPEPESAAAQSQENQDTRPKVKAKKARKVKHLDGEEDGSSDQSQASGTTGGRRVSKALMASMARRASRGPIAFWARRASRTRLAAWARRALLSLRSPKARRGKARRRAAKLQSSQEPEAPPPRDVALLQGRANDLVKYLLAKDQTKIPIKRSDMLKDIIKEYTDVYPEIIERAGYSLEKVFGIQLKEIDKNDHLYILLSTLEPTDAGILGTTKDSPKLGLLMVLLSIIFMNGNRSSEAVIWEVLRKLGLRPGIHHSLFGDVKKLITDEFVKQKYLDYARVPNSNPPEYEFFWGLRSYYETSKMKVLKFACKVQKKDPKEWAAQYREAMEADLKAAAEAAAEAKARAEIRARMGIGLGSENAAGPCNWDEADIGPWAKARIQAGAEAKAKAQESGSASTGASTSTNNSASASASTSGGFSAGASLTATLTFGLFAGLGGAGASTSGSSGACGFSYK
UniProt Q99683: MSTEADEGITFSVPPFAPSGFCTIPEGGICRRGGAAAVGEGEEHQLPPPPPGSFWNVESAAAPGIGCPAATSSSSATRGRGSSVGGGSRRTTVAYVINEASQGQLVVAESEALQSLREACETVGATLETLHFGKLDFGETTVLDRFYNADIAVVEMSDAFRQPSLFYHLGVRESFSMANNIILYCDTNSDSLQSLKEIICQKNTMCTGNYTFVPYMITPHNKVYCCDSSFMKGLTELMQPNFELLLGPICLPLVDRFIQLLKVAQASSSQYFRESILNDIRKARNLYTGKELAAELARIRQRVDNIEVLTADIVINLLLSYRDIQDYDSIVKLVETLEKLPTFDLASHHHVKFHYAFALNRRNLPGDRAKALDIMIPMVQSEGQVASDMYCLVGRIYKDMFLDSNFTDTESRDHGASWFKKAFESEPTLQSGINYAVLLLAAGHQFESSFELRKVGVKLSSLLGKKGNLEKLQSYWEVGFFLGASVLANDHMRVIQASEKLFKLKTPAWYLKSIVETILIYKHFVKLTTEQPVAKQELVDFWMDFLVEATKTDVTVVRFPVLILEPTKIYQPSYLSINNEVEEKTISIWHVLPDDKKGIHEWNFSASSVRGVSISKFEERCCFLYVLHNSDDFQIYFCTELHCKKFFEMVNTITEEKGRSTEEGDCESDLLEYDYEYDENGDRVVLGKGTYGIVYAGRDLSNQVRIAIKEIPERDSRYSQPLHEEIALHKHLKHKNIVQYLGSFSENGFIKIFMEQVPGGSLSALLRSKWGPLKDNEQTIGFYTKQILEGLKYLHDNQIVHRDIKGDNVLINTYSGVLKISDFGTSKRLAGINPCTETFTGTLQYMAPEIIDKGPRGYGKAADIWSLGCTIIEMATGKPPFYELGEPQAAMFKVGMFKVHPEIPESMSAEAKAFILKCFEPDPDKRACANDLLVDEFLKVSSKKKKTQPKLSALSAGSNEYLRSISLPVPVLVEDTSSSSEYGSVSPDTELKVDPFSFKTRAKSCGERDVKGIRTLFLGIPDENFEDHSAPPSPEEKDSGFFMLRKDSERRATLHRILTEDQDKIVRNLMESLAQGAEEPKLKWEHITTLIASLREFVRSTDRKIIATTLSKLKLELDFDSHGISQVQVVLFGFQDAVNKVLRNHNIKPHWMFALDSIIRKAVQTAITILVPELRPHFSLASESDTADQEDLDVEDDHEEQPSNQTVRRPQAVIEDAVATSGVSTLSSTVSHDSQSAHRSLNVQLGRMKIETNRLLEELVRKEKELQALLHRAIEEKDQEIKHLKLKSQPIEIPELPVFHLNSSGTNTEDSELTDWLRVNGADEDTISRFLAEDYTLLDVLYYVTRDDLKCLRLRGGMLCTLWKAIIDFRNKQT
UniProt Q9BSK0: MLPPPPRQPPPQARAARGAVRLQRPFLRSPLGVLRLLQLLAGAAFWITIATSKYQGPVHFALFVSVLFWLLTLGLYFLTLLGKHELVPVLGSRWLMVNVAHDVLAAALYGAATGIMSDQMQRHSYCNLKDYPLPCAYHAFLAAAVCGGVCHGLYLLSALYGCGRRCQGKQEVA

Key:
Experiment in all cases: log2 fold change, soluble protein after heating vs DMSO (PISA); higher = thermal stabilisation; K562 lysate, 10 uM; active = over 0.2 and 3.5 SD of the protein, either way, in both replicates (recomputed)
alvocidib = compound: CN1CC[C@H](c2c(O)cc(O)c3c(=O)cc(-c4ccccc4Cl)oc23)[C@H](O)C1 [alvocidib]
In short: (§1)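 A 30 min treatment with 10 μM compound was applied to crude K562 extract at 1 mg/mL protein in PBS pH 7.4 with 1 mM MgCl2. Heating for 3 min spanned 48°C-58°C, after which aliquots were pooled, adjusted to 0.5% NP-40 at 4°C and spun at 21,000xg for 90 min. TMTpro 16plex LC-MS/MS of the supernatant, with channel sums equalised, gave values recorded as log-two fold change in thermal stability against solvent controls, from duplicates.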

Tubastatin A = compound: CN1CCc2c(c3ccccc3n2Cc2ccc(C(=O)NO)cc2)C1 [Tubastatin A]
In short: as §1

[1] = compound: CNC(=O)C1=CC=CC=C1NC2=NC(=NC=C2Cl)NC3=C(C=C(C=C3)N4CCOCC4)OC
In short: as §1

defactinib = compound: CNC(=O)c1ccc(Nc2ncc(C(F)(F)F)c(NCc3nccnc3N(C)S(C)(=O)=O)n2)cc1 [defactinib]
In short: as §1

[2] = compound: CNc1nc(-c2ccc3c(N)n[nH]c3c2)cc(N2C[C@@H](C(=O)NC3CCCCC3)CC[C@H]2C)n1
In short: as §1

encorafenib = compound: COC(=O)N[C@@H](C)CNc1nccc(-c2cn(C(C)C)nc2-c2cc(Cl)cc(NS(C)(=O)=O)c2F)n1 [encorafenib]
In short: as §1

[3] = compound: COC(=O)[C@H](CCSC)NC(=O)C1=C(C=C(C=C1)NC[C@H](CS)N)C2=CC=CC=C2
In short: as §1

alisertib = compound: COc1cc(Nc2ncc3c(n2)-c2ccc(Cl)cc2C(c2c(F)cccc2OC)=NC3)ccc1C(=O)O [alisertib]
In short: as §1

[4] = compound: COc1cc2nc(-c3cc(F)ccc3O)nc(N[C@@H]3CNC[C@H]3C(C)(C)O)c2cc1OC
In short: as §1

gefitinib = compound: COc1cc2ncnc(Nc3ccc(F)c(Cl)c3)c2cc1OCCCN1CCOCC1 [gefitinib]
In short: as §1

Measured: log2 fold change

MAP3K4 (UniProt Q9Y6R4)
inactive: alvocidib -0.027 | Tubastatin A -0.113 | defactinib 0.071 | [2] -0.018 | encorafenib -0.171 | [3] 0.128 | alisertib -0.028 | [4] -0.045 | gefitinib 0.081
active: [1] 0.366

MAPKAPK5 (UniProt Q8IW41)
inactive: alvocidib 0.055 | Tubastatin A 0 | [1] 0.006 | defactinib 0.003 | [2] -0.089 | encorafenib -0.074 | [3] -0.125 | alisertib -0.006 | [4] 0.01 | gefitinib 0.019

MAPRE1 (UniProt Q15691)
inactive: alvocidib 0.023 | Tubastatin A 0.041 | [1] -0.031 | defactinib 0.004 | [2] -0.04 | encorafenib -0.001 | [3] -0.071 | alisertib -0.002 | [4] -0.026 | gefitinib 0.005

MAGEB2 (UniProt O15479)
inactive: alvocidib 0.01 | Tubastatin A -0.003 | [1] 0.051 | defactinib -0.007 | [2] -0.005 | encorafenib 0.041 | [3] -0.032 | alisertib 0.048 | [4] -0.002 | gefitinib -0.018

LYSMD3 (UniProt Q7Z3D4)
inactive: alvocidib -0.001 | Tubastatin A 0.127 | [1] -0.045 | defactinib -0.062 | [2] 0.092 | encorafenib 0.031 | [3] -0.124 | alisertib 0.001 | [4] 0.112 | gefitinib 0.254

MARS2 (UniProt Q96GW9)
inactive: alvocidib 0.03 | Tubastatin A 0.026 | [1] 0.071 | defactinib 0.015 | [2] 0.079 | encorafenib 0.019 | [3] -0.148 | alisertib -0.053 | [4] -0.002 | gefitinib 0.002

MAPK14 isoform 2 (UniProt Q16539)
inactive: alvocidib 0.154 | Tubastatin A -0.121 | [1] 0.299 | defactinib 0.01 | [2] -0.041 | encorafenib 0.454 | [3] 0.257 | alisertib -0.065 | [4] -0.004 | gefitinib 0.144

MAIP1 (UniProt Q8WWC4)
inactive: alvocidib 0.021 | Tubastatin A -0.126 | [1] 0.014 | defactinib 0.022 | [2] -0.003 | encorafenib -0.046 | [3] -0.02 | alisertib 0.011 | [4] -0.098 | gefitinib -0.015

MAPKAPK3 (UniProt Q16644)
inactive: alvocidib 0.038 | Tubastatin A -0.125 | [1] 0.015 | defactinib 0.033 | [2] -0.11 | encorafenib -0.015 | [3] 0.055 | alisertib -0.055 | [4] 0.006 | gefitinib 0.148

MARF1 (UniProt Q9Y4F3)
inactive: alvocidib -0.024 | Tubastatin A -0.194 | [1] 0.024 | defactinib -0.157 | [2] -0.021 | encorafenib 0.053 | [3] 0.086 | alisertib -0.056 | gefitinib 0.02

2 neighbouring entries from above, quoted:
MAPKAPK3 (UniProt Q16644)
inactive: alvocidib 0.038 | Tubastatin A -0.125 | [1] 0.015 | defactinib 0.033 | [2] -0.11 | encorafenib -0.015 | [3] 0.055 | alisertib -0.055 | [4] 0.006 | gefitinib 0.148

MARF1 (UniProt Q9Y4F3)
inactive: alvocidib -0.024 | Tubastatin A -0.194 | [1] 0.024 | defactinib -0.157 | [2] -0.021 | encorafenib 0.053 | [3] 0.086 | alisertib -0.056 | gefitinib 0.02

More results:

MALSU1 (UniProt Q96EH3)
inactive: alvocidib -0.043 | Tubastatin A 0.029 | [1] 0 | defactinib -0.007 | [2] 0.041 | encorafenib 0.075 | [3] -0.082 | alisertib -0.247 | [4] 0.005 | gefitinib 0.066

MARCKS (UniProt P29966)
inactive: alvocidib 0.041 | Tubastatin A 0.03 | [1] -0.014 | defactinib 0.031 | [2] -0.07 | encorafenib -0.049 | [3] -0.188 | alisertib -0.04 | [4] -0.056 | gefitinib 0.018

MAP3K2 (UniProt Q9Y2U5)
inactive: alvocidib 0.018 | [1] 0.024 | defactinib -0.008 | [2] 0.191 | encorafenib 0.023 | [3] 0.248

MAT2B (UniProt Q9NZL9)
inactive: alvocidib -0.028 | Tubastatin A 0.063 | [1] -0.013 | defactinib 0.003 | [2] -0.01 | encorafenib -0.009 | [3] -0.006 | alisertib 0.032 | [4] 0.016 | gefitinib -0.006

MAP4K2 (UniProt Q12851)
inactive: alvocidib 0.111 | Tubastatin A -0.189 | [1] -0.02 | defactinib 0.086 | [2] 0.055 | encorafenib -0.183 | [3] -0.234 | [4] 0.219

MACF1, A0A0A6YYJ5
inactive: alvocidib -0.022 | Tubastatin A -0.02 | [1] -0.023 | defactinib -0.092 | [2] -0.094 | encorafenib -0.037 | [3] 0.014 | alisertib -0.03 | gefitinib -0.011

MAST2 (UniProt Q6P0Q8)
inactive: alvocidib -0.096 | Tubastatin A -0.06 | [1] 0.219 | defactinib -0.009 | [2] -0.009 | encorafenib 0.114 | [3] 0.078 | [4] -0.002

LYL1 (UniProt P12980)
inactive: alvocidib 0.05 | [1] 0.034

MAML1 (UniProt Q92585)
inactive: alvocidib 0.034 | Tubastatin A 0.071 | [1] 0.141 | defactinib -0.126 | [2] 0.017 | encorafenib -0.007 | [3] -0.003 | alisertib 0.401 | gefitinib 0.12

MAN2A1 (UniProt Q16706)
inactive: alvocidib -0.053 | Tubastatin A 0.031 | [1] 0.013 | defactinib 0.033 | [2] -0.041 | encorafenib -0.004 | [3] -0.071 | alisertib -0.012 | [4] 0.011 | gefitinib 0.026

LTO1 (UniProt Q8WV07)
inactive: alvocidib 0.039 | Tubastatin A 0.037 | [1] -0.073 | defactinib 0.009 | [2] 0.011 | encorafenib 0.058 | [3] 0.067 | alisertib -0.202 | gefitinib 0.238

MANBAL (UniProt Q9NQG1)
inactive: alvocidib -0.012 | Tubastatin A 0.013 | [1] 0.046 | encorafenib 0.035 | [3] -0.18 | [4] 0.065

LYN isoform 2 (UniProt P07948)
inactive: alvocidib 0.138 | Tubastatin A -0.153 | [1] 0.175 | [2] 0.014 | encorafenib -0.063 | [3] 0.301 | alisertib 0.229 | gefitinib 0.054

LTBP4 (UniProt Q8N2S1)
inactive: alvocidib -0.067 | Tubastatin A -0.017 | [1] 0.005 | [2] -0.046 | encorafenib 0.044 | [3] -0.006 | alisertib -0.019 | [4] 0.052 | gefitinib -0.08

LYPLA1 (UniProt O75608)
inactive: alvocidib 0.046 | Tubastatin A 0.044 | [1] -0.011 | defactinib -0.004 | [2] -0.009 | encorafenib 0 | [3] -0.065 | alisertib 0.019 | [4] -0.061 | gefitinib -0.048

MAPRE3 isoform 2 (UniProt Q9UPY8)
inactive: alvocidib 0.185 | Tubastatin A -0.219 | [1] -0.016 | defactinib 0 | [4] -0.071

LYAR (UniProt Q9NX58)
inactive: alvocidib 0.072 | Tubastatin A 0.018 | [1] 0.006 | defactinib 0.014 | [2] -0.002 | encorafenib -0.005 | [3] 0.021 | alisertib 0.005 | [4] -0.001 | gefitinib -0.043

MAGED2 (UniProt Q9UNF1)
inactive: alvocidib 0.043 | Tubastatin A 0.015 | [1] 0.041 | defactinib -0.118 | [2] -0.038 | encorafenib 0.039 | [3] 0.044 | alisertib 0.007 | [4] 0.022 | gefitinib 0.079

MAP3K1 (UniProt Q13233)
inactive: alvocidib 0.122 | Tubastatin A -0.111 | defactinib 0.007 | encorafenib 0.133 | [3] 0.235 | alisertib -0.086 | gefitinib 0.027

MAP3K5 (UniProt Q99683)
inactive: alvocidib 0.014 | Tubastatin A -0.031 | defactinib 0.011 | encorafenib 0.147 | [3] -0.077 | alisertib -0.145 | [4] -0.005 | gefitinib 0.297

MARVELD1 (UniProt Q9BSK0)
inactive: alvocidib -0.017 | [1] -0.141 | defactinib 0.269 | [2] 0.212
